According to patent US20240025959A1:
These are yes or no findings as the source states them, for the method shown. In cells and extracts the contact can be indirect.

Biological target: JNK
Experiment: co-IP with anti-Flag beads and immunoblot; 293T cells co-transfected with Flag-Beclin 2 and an HA-tagged plasmid (FIG. 8A)

binding: no binding
B1: Beclin 2 (human, full length) (protein)
chain: MSSIRFLCQRCHQALKLSGSSESRSLPAAPAPTSGQAEPGDTREPGVTTREVTDAEEQQDGASSRSPPGDGSVSKGHANIFTLLGELGAMHMLSSIQKAAGDIFDIVSGQAVVDHPLCEECTDSLLEQLDIQLALTEADSQNYQRCLETGELATSEDEAAALRAELRDLELEEARLVQELEDVDRNNARAAADLQAAQAEAAELDQQERQHYRDYSALKRQQLELLDQLGNVENQLQYARVQRDRLKEINCFTATFEIWVEGPLGVINNFRLGRLPTVRVGWNEINTAWGQAALLLLTLANTIGLQFQRYRLIPCGNHSYLKSLTDDRTELPLFCYGGQDVFLNNKYDRAMVAFLDCMQQFKEEAEKGELGLSLPYGIQVETGLMEDVGGRGECYSIRTHLNTQELWTKALKFMLINFKWSLIWVASRYQK
